Positions count from the first letter of the chain named. Results are given in words; binding and its absence hold for the method and conditions named. Some results given as binding are weak or reduced against the parent protein; the word gives no strength. Blank lines part the entries; values can stand above or below the binder they belong to.
What was measured:
[1] = target: ephrin type-A receptor 2 (EphA2) on cells (human) (UniProt P29317); experiment: FACS of RYR IgG on single cells from adherent- or sphere-cultured L3.6pl, Alexa 647 anti-human IgG
recombinant human EphA2 [2] = target: T1, recombinant human EphA2 (human, UniProt P29317 25-534); experiment: biolayer interferometry, IgG1 loaded on anti-human Fc probes, 100 nM recombinant human EphA2, 25 C
T1 construct: also called human recombinant EphA2 protein

Amino acid sequences for entries named in this document (tags omitted). A change or cut given only in a name is not applied to a line headed by its entry. Residues count along the entry.
UniProt P29317: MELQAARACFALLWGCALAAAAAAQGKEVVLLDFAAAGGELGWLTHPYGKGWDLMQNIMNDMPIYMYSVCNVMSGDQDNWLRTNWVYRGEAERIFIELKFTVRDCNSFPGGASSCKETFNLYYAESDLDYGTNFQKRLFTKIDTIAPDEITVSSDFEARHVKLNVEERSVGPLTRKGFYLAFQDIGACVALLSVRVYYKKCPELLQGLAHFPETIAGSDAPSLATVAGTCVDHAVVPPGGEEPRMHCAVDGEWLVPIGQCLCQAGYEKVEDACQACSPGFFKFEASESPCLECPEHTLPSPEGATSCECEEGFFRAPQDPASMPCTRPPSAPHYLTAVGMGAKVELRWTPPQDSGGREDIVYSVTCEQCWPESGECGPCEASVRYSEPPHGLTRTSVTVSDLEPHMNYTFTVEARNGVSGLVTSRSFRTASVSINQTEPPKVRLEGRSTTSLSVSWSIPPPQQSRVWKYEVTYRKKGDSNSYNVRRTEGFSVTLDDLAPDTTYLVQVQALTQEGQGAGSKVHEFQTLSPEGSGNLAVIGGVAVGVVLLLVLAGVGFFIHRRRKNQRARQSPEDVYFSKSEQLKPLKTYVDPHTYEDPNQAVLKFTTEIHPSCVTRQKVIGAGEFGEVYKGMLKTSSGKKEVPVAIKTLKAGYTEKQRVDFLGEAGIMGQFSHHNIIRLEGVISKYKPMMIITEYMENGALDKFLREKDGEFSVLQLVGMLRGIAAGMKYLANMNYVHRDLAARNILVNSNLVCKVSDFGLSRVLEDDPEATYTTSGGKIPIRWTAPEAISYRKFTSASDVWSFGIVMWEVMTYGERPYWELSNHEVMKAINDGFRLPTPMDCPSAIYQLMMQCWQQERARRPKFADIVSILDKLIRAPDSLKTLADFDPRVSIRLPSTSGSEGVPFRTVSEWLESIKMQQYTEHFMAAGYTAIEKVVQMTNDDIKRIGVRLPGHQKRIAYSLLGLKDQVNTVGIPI
ephrin type-A receptor 2 (EphA2) on cells: residues 24-976 of P29317
UniProt Q03145, residues 26-535: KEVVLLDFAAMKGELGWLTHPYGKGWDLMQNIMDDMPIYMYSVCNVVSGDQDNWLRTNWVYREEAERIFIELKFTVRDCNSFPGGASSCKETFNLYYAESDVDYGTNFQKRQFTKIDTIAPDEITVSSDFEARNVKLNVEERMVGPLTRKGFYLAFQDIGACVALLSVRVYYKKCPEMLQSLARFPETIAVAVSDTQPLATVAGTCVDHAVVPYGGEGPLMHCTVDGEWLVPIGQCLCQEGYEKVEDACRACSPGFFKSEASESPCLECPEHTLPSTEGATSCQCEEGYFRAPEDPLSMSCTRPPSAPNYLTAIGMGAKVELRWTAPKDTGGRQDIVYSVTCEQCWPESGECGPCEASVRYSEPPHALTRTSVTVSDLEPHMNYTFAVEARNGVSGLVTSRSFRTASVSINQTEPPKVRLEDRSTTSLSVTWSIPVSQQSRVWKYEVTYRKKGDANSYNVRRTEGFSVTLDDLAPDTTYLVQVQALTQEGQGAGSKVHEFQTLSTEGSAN

[3] = target: ephrin type-A receptor 2 (EphA2) on cells (human) (UniProt P29317); experiment: FACS on DU145 cells, IgG1 for 1 h at 25 C, anti-human Alexa Fluor 647
recombinant human EphA2 [4] = target: T1, recombinant human EphA2; experiment: flow cytometry of yeast-displayed scFv with recombinant human EphA2 at 0-100 nM
From the text: In this experiment, RYRgerm is the germline version of RYR. The remaining samples were RYRgerm derivatives with high binding affinity. Apparent KD values were estimated by curve-fitting of normalized MFI values. FIG. 10B: Apparent KD measurement of four new EphA2 scFvs binding affinity to mouse recombinant EphA2-Fc fusion protein. Apparent KD values were estimated by curve-fitting of normalized MFI values.
This Example describes experiments performed to identify new versions of EphA2 binding scFv antibodies with improved binding affinity. The original EphA2 binding scFv RYR has been described previously in PCT/US2015/039741, in which EphA2 binding scFv RYR was named HCA-F1 and a germline version of RYR was named RYRgerm. To identify new versions of EphA2 binding scFv antibodies improved binding affinity for EphA2, yeast display mutagenesis libraries based on RYRgerm were generated and selected by FACS for higher affinity binders. Four new EphA2 scFvs with high binding affinity for EphA2 were identified and named […], RYRgerm_102919_15, RYRgerm_102919_22, and RYRgerm_102919_33, respectively. The amino acid sequences of VH and VL regions as well as the CDRs for these newly identified EphA2 scFvs are presented in Tables 4-5 and the Sequence Listing. In these eperiments, both human and mouse recombinant EphA2 proteins were used in selection to maintain cross-species binding. Apparent affinity was measured by flow cytometry for binding to both human and mouse EphA2.

[5] = target: mouse recombinant EphA2-Fc fusion protein (mouse) (UniProt Q03145); experiment: flow cytometry of yeast-displayed scFv with mouse recombinant EphA2-Fc at 0-100 nM

B1: RYR IgG1 (antibody, V domains shown)
VH: QVQLQESGGGLVQPGGSLRLSCAASGFTFSSYSMNWVRQAPGKGLEWVSYISSSSSTIYYADSVKGRFTISRDNAKNSLYLQMNSLRAEDTAVYYCARYRLPDFWSGYPNYGMDVWGQGTTVTVSS
VL: QSVLTQPPSVSGAPGQRVTISCTGSSSNIGAGYDVHWYQQLPGTAPKLLIYGNSNRPSGVPDRFSGSKSGTSASLAITGLQAEDEADYYCQSYDSSLSGHVVFGGGT
notes: Recombinant human IgG1 built from the original EphA2 scFv RYR; also called original RYR; HCA-F1
- binding [1]: binds
- binding (recombinant human EphA2 [2]): binds
- binding [3]: binds

B3: RYRgerm_102919_22 scFv (scFv)
scFv: EVQLVESGGGLVQPGGSLRLSCAASGFTFSSYSMNWVRQAPGKGLEWVSYISSSSSTIYYADSVKGRFTISRDNAKNSLYLQMNSLRAEDTAVYYCARYRLPNFWSGYPNYGMDVWGQGTTVTVSSGGGGSGGGGSGGGGSQSVLTQPPSVSGAPGQRVTISCTGSSSNIGAGYDVHWYQQLPGTAPKLLIYGNSNRPSGVPDRFSGSKSGTSASLAITGLQAEDEADYYCQSYDSSLSGHVVFGGGTKLTVL
- binding (recombinant human EphA2 [4]): binds
- binding [5]: binds

B5: RYRgerm_102919_15 scFv (scFv)
scFv: B3 scFv with M113T
- binding (recombinant human EphA2 [4]): binds

Continued, values first:

- binding (recombinant human EphA2 [2]): binds
B2: RYRgerm_102919_15 IgG1 (antibody, V domains shown)
VH: B1 VH with Q1E, Q5V, D103N, M113T
VL: QSVLTQPPSVSGAPGQRVTISCTGSSSNIGAGYDVHWYQQLPGTAPKLLIYGNSNRPSGVPDRFSGSKSGTSASLAITGLQAEDEADYYCQSYDSSLSGHVVFGGGTKLTVL
notes: Recombinant human IgG1 built from the scFv RYRgerm_102919_15

- binding (recombinant human EphA2 [4]): binds
- binding [5]: binds
B4: RYRgerm_102919_33 scFv (scFv)
scFv: B3 scFv with L101F, N103D

- binding (recombinant human EphA2 [4]): binds
B6: RYRgerm_102919_14 scFv (scFv)
scFv: B3 scFv with F29S
notes: also called RYRgerm_102019_14

— patent US20220089752A1 (University of California, published 2022)
